Taken from: PubChem BioAssay AID686943 (Drosophila RNAi Screening Center, 2013)

Aim: 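Knockdowns that increase or decrease active ERK after insulin receptor stimulation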 (primary screen)
Cells: Drosophila S2R+ haemocyte-like cells expressing YFP-tagged ERK (Rolled)
Knock-down reagent: long dsRNA against Drosophila genes
Treatment: insulin stimulation versus unstimulated cells; dose and duration not given
Detection: 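Antibody staining for doubly phosphorylated ERK divided by ERK-YFP signal, as plate z-scores, in insulin-treated and untreated cells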
Reading the numbers: replicate 1, z-score of dpERK with insulin and replicate 2, z-score of dpERK with insulin: higher = more active ERK per ERK-YFP after insulin
The deposit covers about 23,000 reagents; below is an unselected part of those with a known target gene and a result. 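Extra replicates exist only for a retested subset of genes; insulin dose and duration not given; both raised and lowered dpERK matter.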 Further read-outs or replicates are left out here. The record does not give: the amount of reagent, the time to read-out.

predicted target,amplicon,"replicate 1, z-score of dpERK with insulin","replicate 2, z-score of dpERK with insulin"
CG9123,DRSC20156,1.29,1.6
ocn,DRSC17020,0.41,0
luna,DRSC05253,0.31,-0.04
luna,DRSC06663,-4.73,-3.52
luna,DRSC07336,1.3,1.17
CG18599,DRSC15357,1.5,-0.17
CG18599,DRSC22585,-4.28,-4.92
esg,DRSC03530,0.23,-0.27
ReepB,DRSC07150,0.37,0.11
Eip75B,DRSC09526,0.8,-0.05
Eip75B,DRSC11161,-2.43,-2.46
Wnt4,DRSC00976,-0.88,-1.91
Wnt4,DRSC03477,-0.17,-0.11
ProtA,DRSC03372,-0.21,-0.1
TORIP,DRSC10104,0.04,-0.39
pan,DRSC17176,1.01,-0.08
pan,DRSC22582,0.49,0.44
CG14431,DRSC17925,0.76,0
CG14431,DRSC17926,-2.07,-2.85
eIF3f2,DRSC04903,-0.33,-0.93
S-Lap2,DRSC10628,0.02,0.29
CG10859,DRSC02110,0.15,0.21
fz,DRSC11348,0.11,0

Reformatted: 3 of the entries above.
predicted target	amplicon	replicate 1, z-score of dpERK with insulin	replicate 2, z-score of dpERK with insulin
CG18599	DRSC22585	-4.28	-4.92
esg	DRSC03530	0.23	-0.27
ReepB	DRSC07150	0.37	0.11
